Measurements taken from PMC6802641.
These are yes or no findings as the source states them, for the method shown. Binding seen in cells or lysates may run through a third protein. Some results given as binding are weak or reduced against the parent protein; the word gives no strength.

Target: T1, Forkhead box P3 (Foxp3) (UniProt Q99JB6)
T1 sequence: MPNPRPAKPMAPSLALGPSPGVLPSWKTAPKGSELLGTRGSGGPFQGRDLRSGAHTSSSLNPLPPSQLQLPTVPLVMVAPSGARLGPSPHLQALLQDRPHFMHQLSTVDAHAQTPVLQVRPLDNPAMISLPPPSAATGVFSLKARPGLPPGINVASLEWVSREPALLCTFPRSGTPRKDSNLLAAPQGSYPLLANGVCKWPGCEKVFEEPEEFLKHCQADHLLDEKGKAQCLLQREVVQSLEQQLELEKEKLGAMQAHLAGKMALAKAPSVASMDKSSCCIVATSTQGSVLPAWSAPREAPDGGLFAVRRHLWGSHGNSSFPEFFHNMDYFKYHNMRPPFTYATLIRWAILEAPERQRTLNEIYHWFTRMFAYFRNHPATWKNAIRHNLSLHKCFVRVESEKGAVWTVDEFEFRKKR
Experiment: co-IP; HEK293T cells transfected with pCMV-Nfil3 and pCMV-Foxp3; lysates by sonication, precleared with protein A/G; anti-NFIL3 or anti-Foxp3 antibody (or control IgG) overnight at 4 °C; protein A/G 2 h; washed with IP150 buffer; western blot with anti-Foxp3 or anti-NFIL3

binding: binds
B1: Nuclear factor interleukin 3 (NFIL3) (protein, UniProt O08750 1-462)
chain: MQLRKMQTIKKEPAPLDPTSSSDKMLLLNSALAEVAEDLASGEDLLLNEGSMGKNKSSACRRKREFIPDEKKDAMYWEKRRKNNEAAKRSREKRRLNDLVLENKLIALGEENATLKAELLSLKLKFGLISSTAYAQEIQKLSNSTAVYFQDYQTSKAAVSSFVDEHEPAMVAGSCISVIKHSPQSSLSDVSEVSSVEHTQESPAQGGCRSPENKFPVIKQEPVELESFAREAREERGTYSTSIYQSYMGSSFSTYSHSPPLLQVHGSTSNSPRTSEADEGVVGKSSDGEDEQQVPKGPIHSPVELQRVHATVVKVPEVNPSALPHKLRIKAKAMQVKVEALDSEFEGMQKLSSPADAIAKRHFDLEKHGTSGMAHSSLPPFSVQVTNIQDWSLKSEHWHHKELSSKTQSSFKTGVVEVKDGGYKVSEAENLYLKQGIANLSAEVVSLKRFIATQPISASDSR
